Experimental data: PubChem BioAssay AID638 (SRMLSC, 2007)
About 65 (5%) of roughly 1,300 compounds were called active.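 The calls were made as follows: active = growth inhibition reaching a set limit at one or more tested doses; inactive = the rest.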 Some of the results follow. Potency and affinity values are given separately.

Experiment: wild-type E. coli BW25113 antibacterial activity – OD615, dose response (AID 638)
Settings: at 100 µM (top of the series) unless noted
Procedure, shortened: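 assay system = wild-type Escherichia coli strain BW25113 growth | medium = Kanamycin-supplemented LB broth | measured by = optical density (absorbance) at 615 nm | timing = bacterial exposure to compound 20 h at 37 °C | doses = compound concentration series | measure = IC50 from 4-parameter logistic, bounds fixed 0–100% | controls = chloramphenicol 30 µM control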

For `COc1ccc(NS(=O)(=O)c2ccc3oc(Nc4ccc5c(c4)OCCO5)nc3c2)cc1`, which growth inhibition is on record?
Its growth inhibition is inactive: -5.81%.

With `CC(Nc1ccc(Br)cn1)c1cc(Cl)ccc1O` (stereo unspecified) as the molecule, how does the growth inhibition read?
The growth inhibition was inactive: 14.7%.

For `COc1ccc2nc(NC(=O)C3COc4ccccc4O3)sc2c1` (stereo unspecified), which growth inhibition is on record?
Its growth inhibition is inactive: -7.38%.

For `Cc1cccc(OCCn2c(NC(=O)c3ccco3)nc3ccccc32)c1`, which growth inhibition is on record?
Its growth inhibition is inactive: 7.25%.

For `c1ccc(-c2nc(CSc3nnc(-c4cccs4)o3)cs2)cc1`, which growth inhibition is on record?
The growth inhibition was inactive: -5.14%.

Which growth inhibition does the source give for `O=C(Nc1nccs1)C(NS(=O)(=O)c1ccc(Br)s1)c1ccccc1` (stereo unspecified) here?
Its growth inhibition is inactive: -8.7%.

For `CC1CC(N(C(=O)c2ccco2)c2ccccc2)c2ccccc2N1` (stereo unspecified), which growth inhibition is on record?
The growth inhibition was inactive: 0.11%.

For `O=C(c1cc2nc(-c3ccco3)cc(C(F)(F)F)n2n1)N1CCN(c2ccc(F)cc2)CC1`, which growth inhibition is on record?
The growth inhibition was inactive: -4.22%.

Which growth inhibition does the source give for `CN1/C(=C\C(=O)c2cccs2)Sc2ccccc21` here?
Its growth inhibition is inactive: 4.81%.

For `N#CC1=C(SCC(=O)NC23CC4CC(CC(C4)C2)C3)NC(=O)C(C#N)C12CCCCC2` (stereo unspecified), which growth inhibition is on record?
The growth inhibition was active: 18.1%.

For `O=C1CN(C(=O)c2ccc(Br)o2)C(c2ccccc2)c2cc(Cl)ccc2N1` (stereo unspecified), which growth inhibition is on record?
The growth inhibition was inactive: -0.14%.

For `C=CCn1c(SCC(O)Cn2c3ccccc3c3ccccc32)nnc1-c1ccco1` (stereo unspecified), which growth inhibition is on record?
The growth inhibition was inactive: -9.43%.

With `N#Cc1nc(COc2ccc(F)cc2)oc1N1CCN(Cc2ccccc2)CC1` as the molecule, how does the growth inhibition read?
The growth inhibition was inactive: -4.55%.

With `COc1ccccc1OCCSc1nnnn1-c1ccc(C)cc1` as the molecule, how does the growth inhibition read?
The growth inhibition was inactive: 7.78%.

Which growth inhibition does the source give for `Cc1ccc(-c2csc3ncnc(Sc4nnc(CN5CCCCCC5=O)o4)c23)cc1` here?
The growth inhibition was inactive: 5.4%.

For `c1ccc(CCN2CCN(c3ncnc4c3cnn4-c3ccccc3)CC2)cc1`, which growth inhibition is on record?
Its growth inhibition is inactive: 2.47%.

With `N#CCSc1nc2c(c(C3CC=CCC3)c1C#N)CCC2` (stereo unspecified) as the molecule, how does the growth inhibition read?
The growth inhibition was inactive: -1.32%.

With `O=c1c2c(nc3n1CCCCC3)-c1ccccc1CC21CCCC1` as the molecule, how does the growth inhibition read?
Its growth inhibition is inactive: 0.11%.

Which growth inhibition does the source give for `CCCOc1ccc(C2C(C(=O)c3ccc(C)o3)=C(O)C(=O)N2Cc2cccnc2)cc1` (stereo unspecified) here?
The growth inhibition was inactive: 6.33%.

For `CCn1cc(C(=O)NC2CCCCC2C)c(=O)c2ccc(C)nc21` (stereo unspecified), which growth inhibition is on record?
The growth inhibition was inactive: 4.15% [at 50 µM].

Which growth inhibition does the source give for `Cc1cccc(S(=O)(=O)C(C#N)c2nc3ccccc3nc2N2CC(C)OC(C)C2)c1` (stereo unspecified) here?
The growth inhibition was inactive: -20.4%.

With `COC(=O)c1sccc1NC(=O)c1ccc(Cl)s1` as the molecule, how does the growth inhibition read?
Its growth inhibition is inactive: 1.64%.

Which growth inhibition does the source give for `CCNc1nc(SCc2ccccc2)nc(N2CCOCC2)n1` here?
The growth inhibition was inactive: 6.48%.

With `Cc1ccc(OCc2nc(C#N)c(NCc3ccc4c(c3)OCO4)o2)cc1` as the molecule, how does the growth inhibition read?
Its growth inhibition is inactive: -12.3%.

Which growth inhibition does the source give for `Cc1ccc(N(CC(=O)Nc2cccc(C)c2)S(=O)(=O)c2cccc3nonc23)cc1` here?
The growth inhibition was inactive: -20.5%.

With `Cc1ccc(N(CC(=O)Nc2ccc3c(c2)OCCO3)S(=O)(=O)c2c(C)noc2C)cc1` as the molecule, how does the growth inhibition read?
The growth inhibition was inactive: -3.69%.

For `Cc1ccc(C2CC(c3cccc(Br)c3)Nc3nnnn32)cc1` (stereo unspecified), which growth inhibition is on record?
Its growth inhibition is inactive: -8.96%.

With `CCN(CCCNC(=O)CCc1nc(-c2ccc(C)cc2)no1)c1cccc(C)c1` as the molecule, how does the growth inhibition read?
The growth inhibition was inactive: -5.93%.

For `COc1ccc(-c2[nH]ncc2Oc2ccccc2OC)c(O)c1`, which growth inhibition is on record?
Its growth inhibition is inactive: 10.7%.

With `Cc1csc(NC(=O)C2CCCN(S(=O)(=O)c3ccc(Br)s3)C2)n1` (stereo unspecified) as the molecule, how does the growth inhibition read?
Its growth inhibition is inactive: -1.72%.

With `O=C(c1ccco1)N1CCN(c2c(-c3ccccc3)c3cc(Cl)ccc3[nH]c2=O)CC1` as the molecule, how does the growth inhibition read?
Its growth inhibition is inactive: 7.38%.

For `COc1ccc(S(=O)(=O)n2cnc3cc(C)c(C)cc32)cc1C`, which growth inhibition is on record?
Its growth inhibition is inactive: -10.4%.

Which growth inhibition does the source give for `Cn1c(=O)n(CCCOc2ccc(Cl)cc2)c2ccccc21` here?
Its growth inhibition is inactive: 2.36%.

Which growth inhibition does the source give for `CCCCCCC(=O)N1CCC(c2nc3c(nnn3Cc3ccccc3Cl)c(=O)[nH]2)CC1` here?
The growth inhibition was inactive: -4.51%.

With `c1ccc(CSc2nnc(-c3ccco3)n2Cc2ccccc2)cc1` as the molecule, how does the growth inhibition read?
Its growth inhibition is inactive: -0.52%.

With `O=C(Nc1ccc2c(c1)CCC2)C1COc2ccccc2O1` (stereo unspecified) as the molecule, how does the growth inhibition read?
Its growth inhibition is inactive: 7.62%.

Which growth inhibition does the source give for `CCOc1ccc(N(CC(=O)Nc2ccc(C)c(C)c2)S(=O)(=O)c2c(C)noc2C)cc1` here?
The growth inhibition was inactive: -3.91%.

For `Cn1cc(SCC(=O)Nc2nc3ccccc3s2)c2ccccc21`, which growth inhibition is on record?
Its growth inhibition is inactive: -9.89%.

For `Cc1nc2c(C(=O)NCc3ccc4c(c3)OCO4)c[nH]n2c(=O)c1Cc1ccccc1F`, which growth inhibition is on record?
The growth inhibition was inactive: 0.77%.

Which growth inhibition does the source give for `Cc1cc(N2CCN(c3ccccc3)CC2)nc(-c2ccccc2)n1` here?
Its growth inhibition is inactive: -2.76%.

Which growth inhibition does the source give for `CCOC(=O)c1cnc(-n2nc(C)cc2C)nc1NC(C)c1ccccc1` (stereo unspecified) here?
The growth inhibition was inactive: 6.59%.

Which growth inhibition does the source give for `COc1cccc(C2/C(=C(/O)c3ccc(C)cc3)C(=O)C(=O)N2Cc2ccco2)c1` (stereo unspecified) here?
The growth inhibition was inactive: -3.65%.

With `CCCn1nnc(NC(=O)COc2ccc(C3CCCCC3)cc2)n1` as the molecule, how does the growth inhibition read?
Its growth inhibition is inactive: 3.74%.

Which growth inhibition does the source give for `COc1ccc(C(=O)C(CN2CCOCC2)c2ccccc2)cc1F` (stereo unspecified) here?
Its growth inhibition is inactive: 11%.

Which growth inhibition does the source give for `O=c1[nH]c2ccc(S(=O)(=O)N3CCN(c4ccccc4F)CC3)cc2s1` here?
The growth inhibition was inactive: -14.9%.

With `O=C(Nc1scc(-c2cccs2)c1C(=O)O)c1cccs1` as the molecule, how does the growth inhibition read?
The growth inhibition was inactive: -14.8%.
